The filed quantity is “Percent Effect” (%).
The controls that fix the scale are not given in the record; negative values are as filed.
The compounds are a random part of those screened.

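Whole-parasite assay of Trypanosoma brucei over 72 hours; the read-out is not stated. Concentration: 30 µM. Direction is inferred from retests: higher values go with stronger inhibition. Values scatter widely below zero; nearly all retest evidence comes from the higher of the two concentrations used. About 64,000 compounds were tested under these conditions; 1.5% (about 940) showed 50% or more at least once.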

Compound,Percent Effect
CN(Cc1ccccc1)C1(C(=O)NCC(N)=O)Cc2ccccc2C1,-17.42%
CCN1CC2(CC1=O)CN(Cc1ccco1)CCN(C(=O)C(C)C)C2.O=C(O)C(F)(F)F (centres unmarked),0.2286%
Cc1occc1CNC(=O)C1CCCN1C(=O)C1CC1 (centres unmarked),-6.196%
N#Cc1ccc(NCCC(=O)N2CCCc3ccccc32)nc1,6.363%
CNc1ccc(CC2CCCN(C(=O)c3cccc(C)n3)C2)nn1 (centres unmarked),-39.01%
O=C(O)CC(O)(CC(=O)O)C(=O)O.OC1CCN(Cc2ccnc(-c3cccnc3)n2)CC1,12.61%
N#Cc1cccc(S(=O)(=O)NC(=O)C2CC(c3ccccc3)=NO2)c1 (centres unmarked),-18.14%
CCc1noc(Cn2c(=O)c3c(C(F)(F)F)cc(C)nc3n2C)n1,-45.53%
CN(C)CC(=O)N1CCC2(CC1)CN(Cc1ccccc1)C2,4.424%
COc1ccc(OC)c(-n2nnnc2SCC2CCCCO2)c1 (centres unmarked),3.008%
CNC(=O)C(C)CN(C)C(=O)Nc1cc(-n2cccc2)ccc1F (centres unmarked),-31.48%
O=C(c1cnco1)N1CCC(Cc2cccc3ncccc23)CC1,-9.16%
CCc1nc(C)sc1CN1CCc2[nH]nc(-c3ccc(F)c(F)c3)c2C1,9.305%
O=C(NCCc1cccs1)NCC(O)c1cccc(F)c1 (centres unmarked),4.447%
CC(NC(=O)CCc1nc(-c2nnc[nH]2)no1)c1ccc(F)cc1F (centres unmarked),-17.88%
COCCCn1ccc(NCc2cnc(C(C)(C)C)s2)n1,-103.6%
[H][C@]1([C@@]2(C)CC[C@H](O)C(C)(C)O2)CC2(CCN(c3ncccn3)CC2)CO1,-5.729%
CCc1nc(C)c(C(C)N(C)CCOC)s1 (centres unmarked),-36.36%
[H][C@]12CCCCN1CCC[C@H]2CCC(=O)NCCc1cc(O)ncn1,-10.18%
C[S+]([O-])c1ccc(CNc2ccc(F)cc2OC(F)F)cc1 (centres unmarked),-17.13%
O=C(CN(Cc1ccccc1)CC1CCOCC1)Nc1nccs1,-43.38%
O=C(NCC(O)c1cccc(F)c1)C1CCN(C(=O)C2CCC2)CC1 (centres unmarked),-15.09%
O=C(O)C(F)(F)F.[H][C@]12CCC[C@@H](CNc3ncccn3)[C@@]1([H])CN(Cc1csnn1)C2,-167.6%
CCCC(=O)NC(C)(C)Cc1ccccc1OC,-24.3%
CC(=O)N(Cc1ncc(C)o1)C1CCN(Cc2ccc(F)c(F)c2)C1 (centres unmarked),-4.591%
O=C1CCC(=O)c2oc3ccc(Cl)cc3c2N1,-23.29%
CCn1cc(NC(=O)C2CCN(CC(=O)NC(C)(C)CC)CC2)cn1,-24.98%
CCC(NC(=O)c1nn(C)cc1C(=O)O)c1ccc(C)cc1C (centres unmarked),-16.47%
Cc1ccccc1N1CCN(C(=O)CSc2ccncc2)CC1=O,-16.29%
[H][C@@]12CCN(Cc3cnn(C)c3)C[C@@]1([H])O[C@H](c1nc(C)cs1)C2,-17.06%
CCS(=O)(=O)c1ccc2oc([C@H]3CCN(Cc4ccccc4)C3)nc2c1,-40.03%
Cc1ccc(C2CCCN(S(C)(=O)=O)C2)nc1 (centres unmarked),0.1814%
[H][C@@]12COCC[C@]1([H])C[C@H](N(CC(=O)NC)C(=O)c1ccccc1)C2,-13.29%
[H][C@@]12CN(C3CCOCC3)C[C@]1([H])N(CCc1cccc(Cl)c1)C(=O)O2,-18.83%
O=C(NCc1nncn1C1CC1)C1(c2cccc(F)c2)CCOCC1,-7.687%
CC(C)c1n[nH]c(C(=O)NC(C)c2ccncc2)c1Br (centres unmarked),20.51%
O=C(O)C(F)(F)F.O=C(O)C(F)(F)F.[H][C@@]12CCN(C(=O)Cc3ccsc3)[C@@]1([H])CC(=O)N2Cc1cccnc1,7.518%
CCS(=O)(=O)N1CCC(c2nnc(C3CC3)o2)CC1,-17.56%
Cc1nn(C)c2nc(NC(C)c3n[nH]c(=O)[nH]3)sc12 (centres unmarked),-4.249%
CCc1nc(CCNC(=O)Nc2cc(C(N)=O)ccc2OC)cs1,12.59%
CCC(=O)N1CCc2c(O)nc(C3CCCCN3C(=O)C3CC3)nc2C1 (centres unmarked),3.093%
Fc1cccc(C(NCc2ncc[nH]2)c2ccccc2)c1 (centres unmarked),-22.26%
Fc1ccc(C2CCCN2Cc2nnnn2C2CC2)cc1 (centres unmarked),-68.41%
Cn1cc(C[C@H]2[C@H](N3CCOCC3)CCN2C(=O)c2ccc[nH]2)cn1,-13.67%
COCCOCCC(=O)Nc1c(-c2ccc(F)cc2)ncn1C,-6.082%
O=C(NCCN1CCOCC1)c1cc2c(s1)CCN2Cc1cccnc1,-48.12%
O=C(NC1CC1)c1nc(COc2ccc3c(c2)OCO3)no1,-0.06663%
Cc1ccc2nc(CNCCCN3CCCC3)cc(O)c2c1,-51.33%
COc1ccccc1N1CCC(CNS(=O)(=O)c2cccc(C#N)c2)C1 (centres unmarked),-1.458%
CCC(C)(C)C(=O)N1CCN(C2=NCC(C)S2)CC1 (centres unmarked),-12.02%
Cc1nnc(CCNC(=O)Nc2ccc(S(C)(=O)=O)cc2)[nH]1,-151.9%
c1cc(CN2CCSC3(CCCCC3)C2)no1,-63.05%
Cc1ccc(C(=O)NCCNC(=O)c2cncnc2C)cc1F,-34.29%
NC(=O)c1noc(Cn2ccc3ccccc3c2=O)n1,-4.913%
Cc1onc(N)c1S(=O)(=O)N1CCCCC1C (centres unmarked),-14.58%
Cc1nsc(N2CCCN(C(=O)c3ccc4[nH]ccc4c3)CC2)n1,-5.794%
c1ccc(Cc2noc(CN3CCc4cncnc4C3)n2)cc1,6.725%
CN(C)C(=O)N1CCN(C(=O)c2ccn3cncc3c2)CC1,8.123%
Cc1cnn(CCNCc2nc(-c3ccccc3Cl)no2)c1,15.5%
Cn1cccc(NC(=O)N2CCC(COCc3ccccc3)C2)c1=O (centres unmarked),-9.838%
COc1ccnc(N(C)Cc2c(C)noc2C)n1,-41.64%
CCn1c(SCC(N)=O)nnc1C(C)NC(=O)c1ccc(Cl)cc1 (centres unmarked),-19.28%

4 of the entries, repeated:

Compound,Percent Effect
O=C(O)CC(O)(CC(=O)O)C(=O)O.OC1CCN(Cc2ccnc(-c3cccnc3)n2)CC1,12.61%
COc1ccc(OC)c(-n2nnnc2SCC2CCCCO2)c1 (centres unmarked),3.008%
CC(C)c1n[nH]c(C(=O)NC(C)c2ccncc2)c1Br (centres unmarked),20.51%
COCCOCCC(=O)Nc1c(-c2ccc(F)cc2)ncn1C,-6.082%

Measurements from “University of Dundee, Small-Polar-MMV Screening Library” (2021), ChEMBL document CHEMBL3988442.